Source: PMC7560607, “Synapse type-specific proteomic dissection identifies IgSF8 as a hippocampal CA3 microcircuit organizer” (Nature Communications, 2020)
Results are given in words; binding and its absence hold for the method and conditions named. Some binding calls cover weakened binding; strength is not graded here. Where a sequence is shown, tags or fusion partners need not be part of it. One block for each molecule: values may come before it.

Protein sequences, listed by entry. Tags and fused reporters are not part of them. Residues count along the entry.
UniProt Q61361, residues 23-883: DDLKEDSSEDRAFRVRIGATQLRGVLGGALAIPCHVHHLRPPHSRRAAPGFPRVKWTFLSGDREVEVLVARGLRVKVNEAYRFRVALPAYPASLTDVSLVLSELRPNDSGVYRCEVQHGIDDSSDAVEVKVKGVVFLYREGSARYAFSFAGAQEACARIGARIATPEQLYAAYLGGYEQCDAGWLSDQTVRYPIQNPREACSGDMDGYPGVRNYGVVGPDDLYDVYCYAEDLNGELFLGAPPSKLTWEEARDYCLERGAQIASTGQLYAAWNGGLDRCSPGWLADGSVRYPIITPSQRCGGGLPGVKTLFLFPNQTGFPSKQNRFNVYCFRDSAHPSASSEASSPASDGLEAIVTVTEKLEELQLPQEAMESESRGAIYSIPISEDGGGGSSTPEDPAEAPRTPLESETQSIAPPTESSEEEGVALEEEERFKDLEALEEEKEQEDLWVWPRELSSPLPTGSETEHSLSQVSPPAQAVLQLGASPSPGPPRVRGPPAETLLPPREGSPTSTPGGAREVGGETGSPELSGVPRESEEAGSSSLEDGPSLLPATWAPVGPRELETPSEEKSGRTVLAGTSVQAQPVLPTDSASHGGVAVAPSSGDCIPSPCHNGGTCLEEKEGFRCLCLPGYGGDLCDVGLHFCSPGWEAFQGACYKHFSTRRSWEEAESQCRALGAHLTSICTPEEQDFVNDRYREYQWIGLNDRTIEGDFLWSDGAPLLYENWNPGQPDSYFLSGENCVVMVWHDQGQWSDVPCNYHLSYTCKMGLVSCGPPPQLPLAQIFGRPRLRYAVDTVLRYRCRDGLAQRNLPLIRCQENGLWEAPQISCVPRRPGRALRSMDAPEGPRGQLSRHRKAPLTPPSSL
UniProt Q69ZK9, residues 15-678: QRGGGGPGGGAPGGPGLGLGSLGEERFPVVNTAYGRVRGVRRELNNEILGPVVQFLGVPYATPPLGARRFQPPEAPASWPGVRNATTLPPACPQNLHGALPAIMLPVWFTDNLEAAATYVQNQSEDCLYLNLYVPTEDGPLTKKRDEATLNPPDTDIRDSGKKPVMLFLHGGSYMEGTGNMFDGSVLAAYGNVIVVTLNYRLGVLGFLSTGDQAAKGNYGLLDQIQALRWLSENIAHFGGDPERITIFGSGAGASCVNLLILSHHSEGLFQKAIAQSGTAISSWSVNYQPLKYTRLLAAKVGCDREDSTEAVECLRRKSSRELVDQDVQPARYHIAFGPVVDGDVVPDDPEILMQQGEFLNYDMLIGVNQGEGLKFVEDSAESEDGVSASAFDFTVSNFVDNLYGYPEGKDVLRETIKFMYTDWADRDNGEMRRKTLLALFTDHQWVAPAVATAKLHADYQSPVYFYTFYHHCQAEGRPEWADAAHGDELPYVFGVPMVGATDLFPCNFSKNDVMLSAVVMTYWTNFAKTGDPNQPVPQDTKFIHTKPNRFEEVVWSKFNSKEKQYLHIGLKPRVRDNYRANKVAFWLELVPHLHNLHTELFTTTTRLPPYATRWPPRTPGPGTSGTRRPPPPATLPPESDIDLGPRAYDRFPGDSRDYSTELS

Columns and labels:
[1] = molecular target: T1, neuropilin-1 extracellular domain, AP- or Fc-tagged (interactome library) (not stated (human or mouse sequence cloned)) (UniProt P97333); test: ELISA; 384-well pairwise screen; ecto-AP bait captured by plate-bound anti-AP antibody, ecto-Fc prey detected with anti-human IgG1-HRP; conditioned media; 4 h at RT; both orientations, three independent experiments; positive = OD650 > 5-fold over background, detected at least twice
T1 sequence: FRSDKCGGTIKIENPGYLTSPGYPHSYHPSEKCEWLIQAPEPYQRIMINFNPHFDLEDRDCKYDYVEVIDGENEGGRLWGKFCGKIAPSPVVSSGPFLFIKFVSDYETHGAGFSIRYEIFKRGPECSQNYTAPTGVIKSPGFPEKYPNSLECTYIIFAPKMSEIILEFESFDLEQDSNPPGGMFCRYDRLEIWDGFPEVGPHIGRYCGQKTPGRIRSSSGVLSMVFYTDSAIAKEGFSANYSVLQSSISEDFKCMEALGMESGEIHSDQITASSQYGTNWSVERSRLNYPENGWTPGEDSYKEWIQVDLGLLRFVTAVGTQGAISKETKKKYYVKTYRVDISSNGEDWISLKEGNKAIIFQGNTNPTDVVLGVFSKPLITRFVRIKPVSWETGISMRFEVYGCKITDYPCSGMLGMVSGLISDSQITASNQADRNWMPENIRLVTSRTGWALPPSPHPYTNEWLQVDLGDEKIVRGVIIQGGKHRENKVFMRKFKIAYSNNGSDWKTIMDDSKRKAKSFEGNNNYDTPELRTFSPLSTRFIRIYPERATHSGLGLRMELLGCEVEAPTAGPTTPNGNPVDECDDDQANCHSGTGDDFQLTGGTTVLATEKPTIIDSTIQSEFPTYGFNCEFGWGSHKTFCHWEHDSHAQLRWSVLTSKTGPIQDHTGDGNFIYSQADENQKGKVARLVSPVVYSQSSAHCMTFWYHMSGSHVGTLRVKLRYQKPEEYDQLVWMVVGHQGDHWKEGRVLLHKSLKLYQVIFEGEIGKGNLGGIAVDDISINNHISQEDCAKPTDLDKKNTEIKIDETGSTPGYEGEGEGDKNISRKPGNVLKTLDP

[2] = molecular target: T2, Tenascin-R-Fc, purified (not stated (human or mouse sequence cloned)) (UniProt Q8BYI9); test: pull-down; direct binding assay: 1 µg His-tagged IgSF8 with equimolar Fc protein in 1 ml 10 mM HEPES pH 7.4, 150 mM NaCl, 2 mM CaCl2, 1 mM MgCl2, 0.1% Tween-20, 1 h RT; Protein-A/G agarose; anti-His western blot; both purified
T2 sequence: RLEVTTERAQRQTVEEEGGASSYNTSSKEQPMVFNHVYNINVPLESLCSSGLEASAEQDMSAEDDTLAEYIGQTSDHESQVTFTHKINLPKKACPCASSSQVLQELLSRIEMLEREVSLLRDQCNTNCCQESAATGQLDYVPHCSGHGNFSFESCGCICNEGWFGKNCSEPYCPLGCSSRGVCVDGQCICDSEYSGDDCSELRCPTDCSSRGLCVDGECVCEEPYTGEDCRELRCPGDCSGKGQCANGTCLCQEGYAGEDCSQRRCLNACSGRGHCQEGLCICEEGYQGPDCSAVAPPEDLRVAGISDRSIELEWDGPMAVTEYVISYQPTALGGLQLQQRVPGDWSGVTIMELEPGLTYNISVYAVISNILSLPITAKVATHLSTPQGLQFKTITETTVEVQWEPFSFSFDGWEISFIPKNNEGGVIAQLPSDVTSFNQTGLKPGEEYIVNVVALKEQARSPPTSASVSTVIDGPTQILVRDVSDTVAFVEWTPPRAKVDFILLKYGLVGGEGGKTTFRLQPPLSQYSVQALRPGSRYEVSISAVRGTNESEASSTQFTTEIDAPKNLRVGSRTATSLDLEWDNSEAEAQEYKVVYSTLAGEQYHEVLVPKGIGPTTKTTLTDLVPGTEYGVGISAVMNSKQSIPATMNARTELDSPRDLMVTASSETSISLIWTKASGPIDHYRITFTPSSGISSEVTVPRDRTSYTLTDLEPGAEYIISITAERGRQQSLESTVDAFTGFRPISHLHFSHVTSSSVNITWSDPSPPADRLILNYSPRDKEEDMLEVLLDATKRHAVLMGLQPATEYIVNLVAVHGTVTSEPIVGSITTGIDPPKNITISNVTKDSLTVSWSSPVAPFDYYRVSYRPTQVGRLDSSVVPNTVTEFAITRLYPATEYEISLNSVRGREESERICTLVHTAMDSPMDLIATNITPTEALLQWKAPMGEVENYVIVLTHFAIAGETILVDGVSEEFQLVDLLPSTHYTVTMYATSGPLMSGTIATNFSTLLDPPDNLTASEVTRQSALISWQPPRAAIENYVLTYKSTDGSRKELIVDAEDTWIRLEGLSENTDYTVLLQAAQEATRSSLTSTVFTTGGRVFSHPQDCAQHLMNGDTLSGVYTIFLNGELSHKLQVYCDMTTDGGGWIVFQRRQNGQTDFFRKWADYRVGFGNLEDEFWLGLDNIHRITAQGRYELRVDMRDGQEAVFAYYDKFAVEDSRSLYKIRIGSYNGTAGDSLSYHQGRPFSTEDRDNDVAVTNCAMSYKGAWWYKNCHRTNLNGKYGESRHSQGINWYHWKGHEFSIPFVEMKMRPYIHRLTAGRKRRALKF

Brevican-Fc (mouse) = Brevican-Fc (mouse) (UniProt Q61361); test: condition: 1 µg His-tagged IgSF8 in 1 ml with equimolar Brevican-Fc; pull-down; direct binding assay: 1 µg His-tagged IgSF8 with equimolar Fc protein in 1 ml 10 mM HEPES pH 7.4, 150 mM NaCl, 2 mM CaCl2, 1 mM MgCl2, 0.1% Tween-20, 1 h RT; Protein-A/G agarose; anti-His western blot; both purified

binding [1]: binds
Molecule: NLGN2 extracellular domain, AP- or Fc-tagged (interactome library) (from UniProt Q69ZK9 15-678) (domain or fragment)

binding [2]: binds
binding (Brevican-Fc (mouse)): no binding
B1: recombinant His-tagged mouse IgSF8 (protein, UniProt Q8R366 26-577)
chain: RQVHVPRGPLYRVAGTAVSISCNVSDYEGPAQQDFEWFMYRPEAPATSLGIVSTKDSQFSYAVFGPRVASGDLQVQRLKGDSVVLKIARLQAQDSGFYECYTPSTDTQYLGNYSAKVELRVLPDELQVSAAPPGPRGRQAATSPSRLTVHEGQELALGCLAQTKTKKHTHLSVSFGRAIPEAPVGRATLQEVVGLRSDMAVEAGAPYAERLASGELRLSKEGTDRYRMVVGGAQAGDSGTYHCTAAEWIQDPDGSWVQVAEKRAVLAHVDVQTLSSQLAVTVGPGERRIGPGEPLELLCNVSGALPPPGRHAAYSVGWEMAPAGAPGPGRLVAQLDTEGIGSLGPGYEDRHIAMEKVASRTYRLRLEAARPADAGTYRCLAKAYVRGSGTRLREAASARSRPLPVHVREEGVVLEAVAWLAGGTVYRGETASLLCNISVRGGPPGLRLAASWWVERPEEGELSSGPAQLVGGVGQDGVAELGVRPGGGPVSVELVGPRSHRLRLHGLGPEDEGIYHCAPSAWVQHADYSWYQAGSARSGPVTVYPYTHAVDT
